Measured values as given in PMC4476799, “Englerin A Agonizes the TRPC4/C5 Cation Channels to Inhibit Tumor Cell Line Proliferation” (PLoS ONE, 2015).
The source gives many values for each of these; only a part stands here.

Tested on: cancer cell lines from the cancer cell line encyclopedia (CCLE)
Assay: Cell line profiling (CLiP) proliferation experiment
Type: cell-based
Set-up: ACTIVITY_AREA: scale not given here; AMAX: unit not given here
Method: Compound profiling experiment and data analysis was performed as previously described. Data was imported and plotted using the Tibco Spotfire DXP application. Lines were categorized as sensitive, intermediate and refractory as follows: Amax<-40 & Inflection Point <2 ~ Sensitive, Amax>-20 & Inflection Point >10 ~ Refractory, all else were called Intermediate. Cancer Cell line HG-U133 Plus 2 data was processed and normalized as described. […] Five sets of refractory cell lines were generated from the pool of refractory cell lines trying to match the lineage composition of the set of sensitive cell lines. The limma package was used as previously described to perform the statistical comparison.

[1] = cell line SCaBER, urinary_tract, transitional_cell_carcinoma
[2] = cell line SEM, haematopoietic_and_lymphoid_tissue, acute_lymphoblastic_B_cell_leukaemia
[3] = cell line SF126, central_nervous_system, astrocytoma
[4] = cell line SF-295 (central_nervous_system, astrocytoma_Grade_IV)
[5] = cell line SF-295, central_nervous_system, astrocytoma_Grade_IV
[6] = cell line SHP-77, lung, small_cell_carcinoma
[7] = cell line SK-CO-1, large_intestine, adenocarcinoma
[8] = cell line SK-LMS-1, soft_tissue
[9] = cell line SK-LU-1, lung, adenocarcinoma
[10] = cell line SK-MES-1, lung, squamous_cell_carcinoma
[11] = cell line SK-N-AS, autonomic_ganglia
[12] = cell line SK-N-BE(2), autonomic_ganglia
[13] = cell line SK-N-DZ, autonomic_ganglia
[14] = cell line SK-N-FI, autonomic_ganglia
[15] = cell line SK-N-SH (autonomic_ganglia, NS)
[16] = cell line SK-N-SH, autonomic_ganglia
[17] = cell line SK-OV-3, ovary, adenocarcinoma
[18] = cell line SKM-1, haematopoietic_and_lymphoid_tissue, acute_myeloid_leukaemia
[19] = cell line SNB-19, central_nervous_system, astrocytoma_Grade_IV
[20] = cell line SNG-M, endometrium, adenocarcinoma
[21] = cell line SNU-1, stomach, undifferentiated_adenocarcinoma
[22] = cell line SNU-16, stomach, undifferentiated_adenocarcinoma
[23] = cell line SNU-119, ovary, adenocarcinoma
[24] = cell line SNU-182, liver, hepatocellular_carcinoma
[25] = cell line SNU-449, liver, hepatocellular_carcinoma
[26] = cell line SNU-475 (liver, hepatocellular_carcinoma)
[27] = cell line SNU-475, liver, hepatocellular_carcinoma
[28] = cell line SNU-626 (central_nervous_system, astrocytoma_Grade_IV)
[29] = cell line SNU-626, central_nervous_system, astrocytoma_Grade_IV
[30] = cell line SNU-738, central_nervous_system, oligodendroglioma
[31] = cell line SNU-878, liver, hepatocellular_carcinoma
[32] = cell line SNU-1079, biliary_tract
[33] = cell line SW48 (large_intestine, adenocarcinoma)
[34] = cell line SW 1783 (central_nervous_system, astrocytoma_Grade_III)
[35] = cell line Set-2, haematopoietic_and_lymphoid_tissue, essential_thrombocythaemia
[36] = cell line THP-1 (haematopoietic_and_lymphoid_tissue, acute_myeloid_leukaemia)

With `CC(C)[C@@]12C[C@@H](O)[C@@](C)(O1)[C@@H]1CC[C@@H](C)[C@H]1[C@@H]2OC(=O)/C=C/c1ccccc1` [Englerin B] the RESPONSE (cell line RT-112, urinary_tract, transitional_cell_carcinoma) was “INTERMEDIATE”, the ACTIVITY_AREA (cell line RVH-421, skin) was 25.69 and the AMAX (cell line RVH-421, skin) was -41.39. The RESPONSE (cell line RVH-421, skin) was “INTERMEDIATE”, the ACTIVITY_AREA (cell line Raji) was 46.45 and the AMAX (cell line Raji) was -92.06. The RESPONSE (cell line Raji) was “INTERMEDIATE”, the ACTIVITY_AREA (cell line Reh) was 23.98 and the AMAX (cell line Reh) was -68.69. The RESPONSE (cell line Reh) was “INTERMEDIATE”, the ACTIVITY_AREA [1] was 14.07 and the AMAX [1] was -45.66. The RESPONSE [1] was “INTERMEDIATE”, the ACTIVITY_AREA [2] was 52.36 and the AMAX [2] was -92.78. For the same compound, the RESPONSE [2] was “INTERMEDIATE”, the ACTIVITY_AREA [3] was 16.33 and the AMAX [3] was -51.64. The RESPONSE [3] was “INTERMEDIATE”, the ACTIVITY_AREA [4] was 32.36 and the AMAX [4] was -86.95. The RESPONSE [4] was “INTERMEDIATE”, the ACTIVITY_AREA [5] was 32.36 and the AMAX [5] was -86.95. For the same compound, the RESPONSE [5] was “INTERMEDIATE”, the ACTIVITY_AREA (cell line SH-4, skin) was 33.65 and the AMAX (cell line SH-4, skin) was -3.14. The RESPONSE (cell line SH-4, skin) was “REFRACTORY”, the ACTIVITY_AREA (cell line SH-10-TC, stomach) was 15.1 and the AMAX (cell line SH-10-TC, stomach) was -43.59. The RESPONSE (cell line SH-10-TC, stomach) was “INTERMEDIATE”, the ACTIVITY_AREA [6] was 31.6 and the AMAX [6] was -35.78. For the same compound, the RESPONSE [6] was “INTERMEDIATE”, the ACTIVITY_AREA (cell line SJRH30, soft_tissue) was 51.08 and the AMAX (cell line SJRH30, soft_tissue) was -72.1. The RESPONSE (cell line SJRH30, soft_tissue) was “INTERMEDIATE”, the ACTIVITY_AREA (cell line SJSA-1, bone) was 16.2 and the AMAX (cell line SJSA-1, bone) was -50.82. For the same compound, the RESPONSE (cell line SJSA-1, bone) was “INTERMEDIATE”, the ACTIVITY_AREA (cell line SK-BR-3, breast) was 113.22 and the AMAX (cell line SK-BR-3, breast) was -42.92. The RESPONSE (cell line SK-BR-3, breast) was “INTERMEDIATE”, the ACTIVITY_AREA [7] was 18.26 and the AMAX [7] was -55.85. The RESPONSE [7] was “INTERMEDIATE”, the ACTIVITY_AREA (cell line SK-ES-1, bone) was 20.21 and the AMAX (cell line SK-ES-1, bone) was -73.28. The RESPONSE (cell line SK-ES-1, bone) was “INTERMEDIATE”, the ACTIVITY_AREA [8] was 30.68 and the AMAX [8] was -47.74. For the same compound, the RESPONSE [8] was “INTERMEDIATE”, the ACTIVITY_AREA [9] was 14.44 and the AMAX [9] was -26.13. The RESPONSE [9] was “INTERMEDIATE”, the ACTIVITY_AREA (cell line SK-MEL-1, skin) was 32.43 and the AMAX (cell line SK-MEL-1, skin) was -84.28. For the same compound, the RESPONSE (cell line SK-MEL-1, skin) was “INTERMEDIATE”, the ACTIVITY_AREA (cell line SK-MEL-2, skin) was 1.02 and the AMAX (cell line SK-MEL-2, skin) was 5.8. The RESPONSE (cell line SK-MEL-2, skin) was “REFRACTORY”, the RESPONSE (cell line SK-MEL-3, skin) was “REFRACTORY” and the ACTIVITY_AREA (cell line SK-MEL-5, skin) was 22.94. The AMAX (cell line SK-MEL-5, skin) was -46.63, the RESPONSE (cell line SK-MEL-5, skin) was “INTERMEDIATE” and the ACTIVITY_AREA (cell line SK-MEL-24, skin) was 33. For the same compound, the AMAX (cell line SK-MEL-24, skin) was -43.01, the RESPONSE (cell line SK-MEL-24, skin) was “INTERMEDIATE” and the ACTIVITY_AREA (cell line SK-MEL-30, skin) was 109.54. For the same compound, the AMAX (cell line SK-MEL-30, skin) was -50.55, the RESPONSE (cell line SK-MEL-30, skin) was “INTERMEDIATE” and the ACTIVITY_AREA [10] was 30.56. The AMAX [10] was -55.21, the RESPONSE [10] was “INTERMEDIATE” and the ACTIVITY_AREA [11] was 91.35. For the same compound, the AMAX [11] was -34.64, the RESPONSE [11] was “INTERMEDIATE” and the ACTIVITY_AREA (cell line SK-N-BE(2)) was 19.1. The AMAX (cell line SK-N-BE(2)) was 2.83, the RESPONSE (cell line SK-N-BE(2)) was “REFRACTORY” and the ACTIVITY_AREA [12] was 19.1. The AMAX [12] was 2.83, the RESPONSE [12] was “REFRACTORY” and the ACTIVITY_AREA [13] was 7.35. For the same compound, the AMAX [13] was 8.38, the RESPONSE [13] was “REFRACTORY” and the ACTIVITY_AREA [14] was 42.7. For the same compound, the AMAX [14] was -8.91, the RESPONSE [14] was “REFRACTORY” and the ACTIVITY_AREA [15] was 19.83. For the same compound, the AMAX [15] was -36.51, the RESPONSE [15] was “INTERMEDIATE” and the ACTIVITY_AREA [16] was 19.83. For the same compound, the AMAX [16] was -36.51, the RESPONSE [16] was “INTERMEDIATE” and the ACTIVITY_AREA [17] was 15.78. The AMAX [17] was -2.48, the RESPONSE [17] was “REFRACTORY” and the ACTIVITY_AREA (cell line SK-UT-1, soft_tissue) was 43.67. For the same compound, the AMAX (cell line SK-UT-1, soft_tissue) was -47.86, the RESPONSE (cell line SK-UT-1, soft_tissue) was “INTERMEDIATE” and the ACTIVITY_AREA (cell line SKM-1) was 38.61. For the same compound, the AMAX (cell line SKM-1) was -61.06, the RESPONSE (cell line SKM-1) was “INTERMEDIATE” and the ACTIVITY_AREA [18] was 38.61. The AMAX [18] was -61.06, the RESPONSE [18] was “INTERMEDIATE” and the ACTIVITY_AREA [19] was 46.12. For the same compound, the AMAX [19] was -38.66, the RESPONSE [19] was “INTERMEDIATE” and the ACTIVITY_AREA [20] was 18.36. For the same compound, the AMAX [20] was -34.56, the RESPONSE [20] was “INTERMEDIATE” and the ACTIVITY_AREA [21] was 12.42. For the same compound, the AMAX [21] was -40.73, the RESPONSE [21] was “INTERMEDIATE” and the ACTIVITY_AREA [22] was 45.05. For the same compound, the AMAX [22] was -92.26, the RESPONSE [22] was “INTERMEDIATE” and the ACTIVITY_AREA [23] was 11.44. For the same compound, the AMAX [23] was -38.35, the RESPONSE [23] was “INTERMEDIATE” and the ACTIVITY_AREA [24] was 33.88. The AMAX [24] was -47.55, the RESPONSE [24] was “INTERMEDIATE” and the ACTIVITY_AREA (cell line SNU-216, stomach) was 13.08. For the same compound, the AMAX (cell line SNU-216, stomach) was -38.81, the RESPONSE (cell line SNU-216, stomach) was “INTERMEDIATE” and the ACTIVITY_AREA [25] was 71.96. For the same compound, the AMAX [25] was -65.86, the RESPONSE [25] was “INTERMEDIATE” and the ACTIVITY_AREA [26] was 32.78. For the same compound, the AMAX [26] was -46.9, the RESPONSE [26] was “INTERMEDIATE” and the ACTIVITY_AREA [27] was 32.78. For the same compound, the AMAX [27] was -46.9, the RESPONSE [27] was “INTERMEDIATE” and the ACTIVITY_AREA [28] was 35.65. For the same compound, the AMAX [28] was -39.96, the RESPONSE [28] was “INTERMEDIATE” and the ACTIVITY_AREA [29] was 35.65. The AMAX [29] was -39.96, the RESPONSE [29] was “INTERMEDIATE” and the ACTIVITY_AREA [30] was 58.38. The AMAX [30] was -11.21, the RESPONSE [30] was “REFRACTORY” and the ACTIVITY_AREA [31] was 12.07. The AMAX [31] was -56.36, the RESPONSE [31] was “INTERMEDIATE” and the ACTIVITY_AREA [32] was 17.2. The AMAX [32] was -58.5, the RESPONSE [32] was “INTERMEDIATE” and the ACTIVITY_AREA [33] was 28.7. The AMAX [33] was -50.84, the RESPONSE [33] was “INTERMEDIATE” and the ACTIVITY_AREA [34] was 20.67. The AMAX [34] was -42.77, the RESPONSE [34] was “INTERMEDIATE” and the ACTIVITY_AREA [35] was 53.05. For the same compound, the AMAX [35] was -70.32, the RESPONSE [35] was “INTERMEDIATE” and the ACTIVITY_AREA [36] was 72.35. The AMAX [36] was -58.83, the RESPONSE [36] was “INTERMEDIATE” and the ACTIVITY_AREA (cell line U-118 MG) was 17.9. The AMAX (cell line U-118 MG) was -38.77, the RESPONSE (cell line U-118 MG) was “INTERMEDIATE” and the ACTIVITY_AREA (cell line huH-1, liver) was 60.34. For the same compound, the AMAX (cell line huH-1, liver) was -47.26, the RESPONSE (cell line huH-1, liver) was “INTERMEDIATE” and the ACTIVITY_AREA (huH-1 (liver)) was 60.34. The AMAX (huH-1 (liver)) was -47.26 and the RESPONSE (huH-1 (liver)) was “INTERMEDIATE”.
